Measurements as given in patent publication US20170296617A1.
No constants are given. Whether binding was seen depends on the method and setting. Some results given as binding are weak or reduced against the parent protein; the word gives no strength.

Protein sequences, listed by entry. Tags and fused reporters are not part of them. Residues count along the entry.
UniProt O75116, residues 5-554: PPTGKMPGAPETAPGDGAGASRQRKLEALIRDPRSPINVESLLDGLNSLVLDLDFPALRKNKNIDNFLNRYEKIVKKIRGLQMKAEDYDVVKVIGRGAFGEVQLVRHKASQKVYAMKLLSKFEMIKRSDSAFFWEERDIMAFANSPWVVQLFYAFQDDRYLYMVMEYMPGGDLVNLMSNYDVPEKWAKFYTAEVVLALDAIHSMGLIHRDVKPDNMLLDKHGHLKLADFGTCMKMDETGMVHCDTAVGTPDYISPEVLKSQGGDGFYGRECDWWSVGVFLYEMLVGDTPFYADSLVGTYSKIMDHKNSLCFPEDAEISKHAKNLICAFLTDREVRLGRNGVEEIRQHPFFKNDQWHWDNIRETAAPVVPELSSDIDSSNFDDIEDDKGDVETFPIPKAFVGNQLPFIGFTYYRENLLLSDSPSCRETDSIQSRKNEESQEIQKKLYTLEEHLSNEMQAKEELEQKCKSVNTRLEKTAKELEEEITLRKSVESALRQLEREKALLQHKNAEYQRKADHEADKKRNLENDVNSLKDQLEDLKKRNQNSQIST
UniProt Q13464, residues 1-415: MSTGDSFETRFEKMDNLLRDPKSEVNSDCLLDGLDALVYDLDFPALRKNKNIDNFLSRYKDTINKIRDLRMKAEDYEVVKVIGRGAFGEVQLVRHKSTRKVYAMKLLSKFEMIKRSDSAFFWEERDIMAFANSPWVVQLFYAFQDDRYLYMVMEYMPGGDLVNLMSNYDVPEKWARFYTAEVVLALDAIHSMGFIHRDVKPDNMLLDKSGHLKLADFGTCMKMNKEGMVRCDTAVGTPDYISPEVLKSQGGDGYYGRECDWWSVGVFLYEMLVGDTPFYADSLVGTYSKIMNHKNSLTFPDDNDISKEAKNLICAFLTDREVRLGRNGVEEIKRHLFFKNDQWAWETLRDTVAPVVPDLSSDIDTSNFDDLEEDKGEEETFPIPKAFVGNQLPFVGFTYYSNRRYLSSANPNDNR

Assays:
[1] = target: ROCK2 (UniProt O75116); experiment: SPR (BiaCore)
[2] = target: MBP-ROCK1 (ROCK1 catalytic domain linked to maltose binding protein) (UniProt Q13464); experiment: DFDNB cross-linking, trypsin digestion, MALDI-TOF-MS
[3] = target: ROCK1 kinase catalytic domain (UniProt Q13464); experiment: STD-NMR

Measured: binding

ERTYSPSTAVRS [peptide25 (…)]
binds: all assays above
